Test results from publication PMC7351111.
These are yes or no findings as the source states them, for the method shown. Binding seen in cells or lysates may run through a third protein. Here binding means that the protein was enriched with, or labelled near, the bait; the list need not be complete.

Protein sequences, listed by entry. Tags and fused reporters are not part of them.
UniProt Q9BXW9: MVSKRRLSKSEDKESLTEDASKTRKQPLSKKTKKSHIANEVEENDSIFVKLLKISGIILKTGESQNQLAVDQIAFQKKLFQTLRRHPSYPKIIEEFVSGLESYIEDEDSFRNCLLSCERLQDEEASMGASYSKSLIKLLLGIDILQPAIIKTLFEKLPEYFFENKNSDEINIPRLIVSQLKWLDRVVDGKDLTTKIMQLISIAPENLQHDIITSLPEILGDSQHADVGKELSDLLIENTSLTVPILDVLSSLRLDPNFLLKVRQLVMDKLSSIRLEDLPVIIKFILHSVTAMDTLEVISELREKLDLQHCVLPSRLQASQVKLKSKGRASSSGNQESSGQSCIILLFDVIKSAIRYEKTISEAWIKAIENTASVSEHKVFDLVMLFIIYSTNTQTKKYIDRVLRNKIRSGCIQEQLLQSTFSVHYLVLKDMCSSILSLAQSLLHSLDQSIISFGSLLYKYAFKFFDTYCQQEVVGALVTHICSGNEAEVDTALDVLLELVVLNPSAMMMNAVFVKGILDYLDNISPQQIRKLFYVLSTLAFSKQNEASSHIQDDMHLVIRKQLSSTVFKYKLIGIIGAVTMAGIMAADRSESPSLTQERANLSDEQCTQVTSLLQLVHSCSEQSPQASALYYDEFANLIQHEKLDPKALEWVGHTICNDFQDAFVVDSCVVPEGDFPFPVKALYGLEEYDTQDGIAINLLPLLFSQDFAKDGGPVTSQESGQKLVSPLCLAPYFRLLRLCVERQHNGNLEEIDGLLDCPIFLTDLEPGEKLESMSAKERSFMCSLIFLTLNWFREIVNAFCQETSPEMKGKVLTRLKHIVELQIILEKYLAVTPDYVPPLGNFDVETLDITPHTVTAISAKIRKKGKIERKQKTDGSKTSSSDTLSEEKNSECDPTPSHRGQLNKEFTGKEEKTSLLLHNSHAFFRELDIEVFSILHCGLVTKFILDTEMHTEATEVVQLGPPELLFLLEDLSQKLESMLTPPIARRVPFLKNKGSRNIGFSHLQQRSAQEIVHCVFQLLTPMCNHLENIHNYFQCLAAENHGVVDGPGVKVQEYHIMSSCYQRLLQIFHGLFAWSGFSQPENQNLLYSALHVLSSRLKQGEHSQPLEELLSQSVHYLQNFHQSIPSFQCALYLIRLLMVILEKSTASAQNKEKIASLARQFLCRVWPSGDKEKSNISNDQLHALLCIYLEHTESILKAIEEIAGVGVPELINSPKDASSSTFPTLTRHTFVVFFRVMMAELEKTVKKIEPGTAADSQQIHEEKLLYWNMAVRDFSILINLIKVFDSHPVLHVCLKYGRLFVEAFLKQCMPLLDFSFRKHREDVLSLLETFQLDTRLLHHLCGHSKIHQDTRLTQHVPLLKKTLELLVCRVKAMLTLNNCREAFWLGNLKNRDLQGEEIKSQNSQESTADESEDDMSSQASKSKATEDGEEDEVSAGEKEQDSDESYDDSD

Molecular target: Flag-HA-FANCD2 (stably expressed in HeLa cells) (human) (UniProt Q9BXW9)
Experiment: affinity purification with mass spectrometry; Flag-HA-FANCD2 purified in two steps (M2 anti-FLAG agarose, then anti-HA Sepharose) from nuclear extract of HeLa S3 cells treated with 160 ng/ml mitomycin C overnight; nuclei treated with Benzonase and 1% formaldehyde for 3 min; TCA precipitate analysed by silver stain and MS/MS

B1: POLD3 (endogenous, HeLa) (protein, UniProt Q15054 1-466)
chain: MADQLYLENIDEFVTDQNKIVTYKWLSYTLGVHVNQAKQMLYDYVERKRKENSGAQLHVTYLVSGSLIQNGHSCHKVAVVREDKLEAVKSKLAVTASIHVYSIQKAMLKDSGPLFNTDYDILKSNLQNCSKFSAIQCAAAVPRAPAESSSSSKKFEQSHLHMSSETQANNELTTNGHGPPASKQVSQQPKGIMGMFASKAAAKTQETNKETKTEAKEVTNASAAGNKAPGKGNMMSNFFGKAAMNKFKVNLDSEQAVKEEKIVEQPTVSVTEPKLATPAGLKKSSKKAEPVKVLQKEKKRGKRVALSDDETKETENMRKKRRRIKLPESDSSEDEVFPDSPGAYEAESPSPPPPPSPPLEPVPKTEPEPPSVKSSSGENKRKRKRVLKSKTYLDGEGCIVTEKVYESESCTDSEEELNMKTSSVHRPPAMTVKKEPREERKGPKKGTAALGKANRQVSITGFFQRK
binding: binds

B2: PRIM2 (endogenous, HeLa) (protein, UniProt P49643 1-509)
chain: MEFSGRKWRKLRLAGDQRNASYPHCLQFYLQPPSENISLIEFENLAIDRVKLLKSVENLGVSYVKGTEQYQSKLESELRKLKFSYRENLEDEYEPRRRDHISHFILRLAYCQSEELRRWFIQQEMDLLRFRFSILPKDKIQDFLKDSQLQFEAISDEEKTLREQEIVASSPSLSGLKLGFESIYKIPFADALDLFRGRKVYLEDGFAYVPLKDIVAIILNEFRAKLSKALALTARSLPAVQSDERLQPLLNHLSHSYTGQDYSTQGNVGKISLDQIDLLSTKSFPPCMRQLHKALRENHHLRHGGRMQYGLFLKGIGLTLEQALQFWKQEFIKGKMDPDKFDKGYSYNIRHSFGKEGKRTDYTPFSCLKIILSNPPSQGDYHGCPFRHSDPELLKQKLQSYKISPGGISQILDLVKGTHYQVACQKYFEMIHNVDDCGFSLNHPNQFFCESQRILNGGKDIKKEPIQPETPQPKPSVQKTKDASSALASLNSSLEMDMEGLEDYFSEDS
binding: binds

B3: FANCA (endogenous, HeLa) (protein, UniProt O15360 1-1455)
chain: MSDSWVPNSASGQDPGGRRRAWAELLAGRVKREKYNPERAQKLKESAVRLLRSHQDLNALLLEVEGPLCKKLSLSKVIDCDSSEAYANHSSSFIGSALQDQASRLGVPVGILSAGMVASSVGQICTAPAETSHPVLLTVEQRKKLSSLLEFAQYLLAHSMFSRLSFCQELWKIQSSLLLEAVWHLHVQGIVSLQELLESHPDMHAVGSWLFRNLCCLCEQMEASCQHADVARAMLSDFVQMFVLRGFQKNSDLRRTVEPEKMPQVTVDVLQRMLIFALDALAAGVQEESSTHKIVRCWFGVFSGHTLGSVISTDPLKRFFSHTLTQILTHSPVLKASDAVQMQREWSFARTHPLLTSLYRRLFVMLSAEELVGHLQEVLETQEVHWQRVLSFVSALVVCFPEAQQLLEDWVARLMAQAFESCQLDSMVTAFLVVRQAALEGPSAFLSYADWFKASFGSTRGYHGCSKKALVFLFTFLSELVPFESPRYLQVHILHPPLVPGKYRSLLTDYISLAKTRLADLKVSIENMGLYEDLSSAGDITEPHSQALQDVEKAIMVFEHTGNIPVTVMEASIFRRPYYVSHFLPALLTPRVLPKVPDSRVAFIESLKRADKIPPSLYSTYCQACSAAEEKPEDAALGVRAEPNSAEEPLGQLTAALGELRASMTDPSQRDVISAQVAVISERLRAVLGHNEDDSSVEISKIQLSINTPRLEPREHMAVDLLLTSFCQNLMAASSVAPPERQGPWAALFVRTMCGRVLPAVLTRLCQLLRHQGPSLSAPHVLGLAALAVHLGESRSALPEVDVGPPAPGAGLPVPALFDSLLTCRTRDSLFFCLKFCTAAISYSLCKFSSQSRDTLCSCLSPGLIKKFQFLMFRLFSEARQPLSEEDVASLSWRPLHLPSADWQRAALSLWTHRTFREVLKEEDVHLTYQDWLHLELEIQPEADALSDTERQDFHQWAIHEHFLPESSASGGCDGDLQAACTILVNALMDFHQSSRSYDHSENSDLVFGGRTGNEDIISRLQEMVADLELQQDLIVPLGHTPSQEHFLFEIFRRRLQALTSGWSVAASLQRQRELLMYKRILLRLPSSVLCGSSFQAEQPITARCEQFFHLVNSEMRNFCSHGGALTQDITAHFFRGLLNACLRSRDPSLMVDFILAKCQTKCPLILTSALVWWPSLEPVLLCRWRRHCQSPLPRELQKLQEGRQFASDFLSPEAASPAPNPDWLSAAALHFAIQQVREENIRKQLKKLDCEREELLVFLFFFSLMGLLSSHLTSNSTTDLPKAFHVCAAILECLEKRKISWLALFQLTESDLRLGRLLLRVAPDQHTRLLPFAFYSLLSYFHEDAAIREEAFLHVAVDMYLKLVQLFVAGDTSTVSPPAGRSLELKGQGNPVELITKARLFLLQLIPRCPKKSFSHVAELLADRGDCDPEVSAALQSRQQAAPDADLSQEPHLF
binding: binds

B4: UHRF1 (endogenous, HeLa) (protein, UniProt Q96T88 1-793)
chain: MWIQVRTMDGRQTHTVDSLSRLTKVEELRRKIQELFHVEPGLQRLFYRGKQMEDGHTLFDYEVRLNDTIQLLVRQSLVLPHSTKERDSELSDTDSGCCLGQSESDKSSTHGEAAAETDSRPADEDMWDETELGLYKVNEYVDARDTNMGAWFEAQVVRVTRKAPSRDEPCSSTSRPALEEDVIYHVKYDDYPENGVVQMNSRDVRARARTIIKWQDLEVGQVVMLNYNPDNPKERGFWYDAEISRKRETRTARELYANVVLGDDSLNDCRIIFVDEVFKIERPGEGSPMVDNPMRRKSGPSCKHCKDDVNRLCRVCACHLCGGRQDPDKQLMCDECDMAFHIYCLDPPLSSVPSEDEWYCPECRNDASEVVLAGERLRESKKKAKMASATSSSQRDWGKGMACVGRTKECTIVPSNHYGPIPGIPVGTMWRFRVQVSESGVHRPHVAGIHGRSNDGAYSLVLAGGYEDDVDHGNFFTYTGSGGRDLSGNKRTAEQSCDQKLTNTNRALALNCFAPINDQEGAEAKDWRSGKPVRVVRNVKGGKNSKYAPAEGNRYDGIYKVVKYWPEKGKSGFLVWRYLLRRDDDEPGPWTKEGKDRIKKLGLTMQYPEGYLEALANREREKENSKREEEEQQEGGFASPRTGKGKWKRKSAGGGPSRAGSPRRTSKKTKVEPYSLTAQQSSLIREDKSNAKLWNEVLASLKDRPASGSPFQLFLSKVEETFQCICCQELVFRPITTVCQHNVCKDCLDRSFRAQVFSCPACRYDLGRSYAMQVNQPLQTVLNQLFPGYGNGR
binding: binds
